Measurements reported in the supplement of paper PMC7877785.
± gives the uncertainty stated by the source. The uncertainty is large for many entries.

Test: self-splicing fitness, log relative to wild type (ln ratio); higher = more splicing; Tetrahymena group I intron in knt gene, E. coli kanamycin selection, DiMSum; sequences stand for … in CUCUCU…GGAGGGAAAAGUUAUCAGGCAUGCACCUGGUAGCUAGUCUUUAAACCAAUAGAUUGCAUCGGUUUAAAAGGCAAGACCGUCAAAUUGCGGGAAAGGGGUCAACAGCCGUUCAGUACCAAGUCUCAGGGGAAACUUUGAGAUGGCCUUGCAAAGGGUAUGGUAAUAAGCUGACGGACAUGGUCCUAACCACGCAGCCAAGUCCUAAGUCAACAGAUCUUCUGUUGAUAUGGAUGCAGUUCACAGACUAAAUGUCGGUCGGGGAAGAUGUAUUCUUCUCAUAAGAUAUAGUCGGACCUCUCCUUAAUGGGAGCUAGCGGAUGAAGUGAUGCAACACUGGAGCCGCUGGGAACUAAUUUGUAUGCGAAAGUAUAUUGAUUAGUUUUGGAGUACUCGUGGUCG
Method in brief: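 Six replicate transformations of E. coli BL21(DE3) with a pET-22b(+) library were grown overnight at 37°C or 30°C. The library randomised all eight P1ex-region intron nucleotides, the intron lying in the knt kanamycin-resistance gene, and plates were LB agar with or without 25 μg/mL kanamycin plus 100 μg/mL carbenicillin, 50 μM IPTG and 0.2% rhamnose. Pooled colonies were amplicon-sequenced on an Illumina HiSeq 2500, and fitness is the DiMSum error-weighted combination of wild-type-normalised replicate fold changes, kanamycin versus none.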

Sequence	self-splicing fitness (ln) (30 °C)	self-splicing fitness (ln) (37 °C)
UAGUAGCAAUAUUACGCAAU	-3.44 ± 0.62	–
GUUUAGCAAUAUUACGUUAA	-1.87 ± 0.33	-1.68 ± 0.24
AUCAAGCAAUAUUACGCUAC	-3.66 ± 1	–
ACUGAGCAAUAUUACGAAGC	-3.3 ± 0.66	–
CGUGAGCAAUAUUACGCGUC	–	-3.01 ± 1
UUCGAGCAAUAUUACGUAGC	-2.62 ± 1.1	-2.99 ± 0.74
CACUAGCAAUAUUACGUCUA	-2.25 ± 0.23	-2.52 ± 0.29
UACUAGCAAUAUUACGGACC	-1.47 ± 0.5	–
UGGGAGCAAUAUUACGAUUU	–	-3.49 ± 0.6
CUAUAGCAAUAUUACGUCUC	–	-0.663 ± 0.68
GCGUAGCAAUAUUACGGCUU	-1.21 ± 0.11	-0.0921 ± 0.14
CGGGAGCAAUAUUACGAACG	-4.35 ± 0.24	-3 ± 0.23
UAAGAGCAAUAUUACGCUGA	-3.94 ± 0.6	–
AAUGAGCAAUAUUACGAUCC	-3.85 ± 0.6	-3.15 ± 1
UAGAAGCAAUAUUACGGAGC	-4.4 ± 0.72	–
AGUUAGCAAUAUUACGUGGC	-1.99 ± 0.53	-1.74 ± 0.52
AGUAAGCAAUAUUACGUCAG	-4.94 ± 0.58	–
ACUAAGCAAUAUUACGGGAG	-2.5 ± 0.11	-1.88 ± 0.14
GCGGAGCAAUAUUACGAAUG	-2.52 ± 0.53	-1.38 ± 0.71
UCGUAGCAAUAUUACGGGCC	-3.8 ± 0.77	–
AACUAGCAAUAUUACGUAAU	-1.82 ± 0.098	-0.948 ± 0.099
UUGUAGCAAUAUUACGAUCC	-0.986 ± 0.87	–
UCUGAGCAAUAUUACGUGUC	–	-3.49 ± 0.52
GUGAAGCAAUAUUACGAACG	-1.57 ± 0.4	-1.6 ± 0.52

Sequence	self-splicing fitness (ln) (30 °C)	self-splicing fitness (ln) (37 °C)
AGGGAGCAAUAUUACGUUCC	-4.14 ± 0.59	–
GACUAGCAAUAUUACGAGUC	-4.4 ± 0.51	–
GGCGAGCAAUAUUACGGCCC	0.209 ± 0.31	–
GUCAAGCAAUAUUACGGGGA	-4.26 ± 1	–
AUGGAGCAAUAUUACGUUGA	-3.85 ± 0.74	–
CUGCAGCAAUAUUACGGCUC	-2.57 ± 0.22	-2.96 ± 0.43
UCUUAGCAAUAUUACGGCCC	-0.828 ± 0.82	-1.09 ± 0.92
UGGAAGCAAUAUUACGUAAG	-1.07 ± 0.12	-0.81 ± 0.13
CUUGAGCAAUAUUACGACCU	-3.66 ± 1	-2.69 ± 0.62
CCCCAGCAAUAUUACGUCCG	-4.14 ± 0.51	–
UUUGAGCAAUAUUACGGAAU	-1.39 ± 0.76	-1.91 ± 0.6
CGCUAGCAAUAUUACGGUCA	-0.0527 ± 0.076	0.137 ± 0.079
UGUUAGCAAUAUUACGUGGC	–	-0.802 ± 0.68
GGGUAGCAAUAUUACGUGGC	-4.18 ± 0.51	–
GGUAAGCAAUAUUACGUUAG	-3.15 ± 0.18	-1.72 ± 0.19
CUACAGCAAUAUUACGCUUG	-2.37 ± 0.15	-2.26 ± 0.16
UGAGAGCAAUAUUACGUUGA	-3.63 ± 0.52	–
AUUUAGCAAUAUUACGAUGG	–	-2.66 ± 0.62
UGGAAGCAAUAUUACGAUUC	–	-3.41 ± 0.73
CUAGAGCAAUAUUACGGAGC	-5.02 ± 0.51	–
UCGUAGCAAUAUUACGAAUA	-3.94 ± 0.61	–
CCUUAGCAAUAUUACGUCUC	-3.16 ± 0.52	–
UGUAAGCAAUAUUACGCAUG	-1.95 ± 0.099	0.308 ± 0.14
UAUAAGCAAUAUUACGACCC	-3.7 ± 1.1	-1.58 ± 0.59

Sequence	self-splicing fitness (ln) (30 °C)	self-splicing fitness (ln) (37 °C)
UGUGAGCAAUAUUACGCAGC	-3.62 ± 0.61	-1.77 ± 0.4
CGGGAGCAAUAUUACGCGCC	-3.28 ± 0.63	-1.51 ± 0.43
GCGAAGCAAUAUUACGCCUU	-4.18 ± 0.52	–
AGCGAGCAAUAUUACGAUGA	–	-2.94 ± 0.53
CUCUAGCAAUAUUACGUCCA	-3.88 ± 1.1	–
UGGUAGCAAUAUUACGAGAU	-0.998 ± 0.5	–
CGAGAGCAAUAUUACGAACU	-3.58 ± 0.6	-1.75 ± 0.59
GGUCAGCAAUAUUACGAGCA	–	-0.442 ± 0.51
AGACAGCAAUAUUACGUUCA	-0.336 ± 0.056	-0.159 ± 0.086
GUAAAGCAAUAUUACGAUAC	-0.815 ± 0.14	-0.547 ± 0.16
UAUUAGCAAUAUUACGAGUC	–	-2.57 ± 1.1
UGUUAGCAAUAUUACGAGGA	-4.25 ± 0.61	–
AAUUAGCAAUAUUACGACCC	-0.488 ± 0.53	–
UAGGAGCAAUAUUACGUCCC	-0.77 ± 0.71	-1.33 ± 1.2
CAGGAGCAAUAUUACGAGUC	-3.87 ± 0.52	-2.23 ± 0.56
GGGGAGCAAUAUUACGGUGC	-3.06 ± 0.75	–
AGCGAGCAAUAUUACGCCGU	-3.88 ± 1.1	-1.24 ± 0.34
UAGCAGCAAUAUUACGAUCG	-0.76 ± 0.093	-0.0334 ± 0.12
UACCAGCAAUAUUACGAGUG	-0.127 ± 0.052	-0.0711 ± 0.067
UUAUAGCAAUAUUACGAAUA	-0.72 ± 0.67	-1.92 ± 0.66
CCUUAGCAAUAUUACGCCCC	–	-0.44 ± 1.4
GUGGAGCAAUAUUACGUCUA	–	-2.65 ± 0.61
GCGGAGCAAUAUUACGCUGC	-3.41 ± 0.75	–
CCUUAGCAAUAUUACGGAAA	–	-3.53 ± 0.6

Sequence	self-splicing fitness (ln) (30 °C)	self-splicing fitness (ln) (37 °C)
UCGUAGCAAUAUUACGACAG	-3.38 ± 0.6	–
AGAGAGCAAUAUUACGGCAA	-4.04 ± 1.1	-1.48 ± 0.4
GAAUAGCAAUAUUACGAAGU	-3.48 ± 1.1	–
AGUGAGCAAUAUUACGGGGC	-4.81 ± 0.71	–
GGACAGCAAUAUUACGGGCC	-3.62 ± 0.61	–
CGUGAGCAAUAUUACGCCCA	-3.49 ± 0.54	–
GGUUAGCAAUAUUACGUGCC	–	-1.51 ± 0.5
AGGCAGCAAUAUUACGUCAA	-1.25 ± 0.098	-0.465 ± 0.095
UUAGAGCAAUAUUACGAGUC	-2.61 ± 0.57	–
AAGGAGCAAUAUUACGAAUU	-3.3 ± 0.53	-2.1 ± 0.65
CUAAAGCAAUAUUACGUCCA	-3.01 ± 0.19	-2.79 ± 0.31
UGGCAGCAAUAUUACGGGCC	-3.78 ± 0.6	–
GCGGAGCAAUAUUACGGUUC	-2.31 ± 0.68	–
GAAGAGCAAUAUUACGACCG	–	-3.55 ± 0.73
UGGGAGCAAUAUUACGCUCG	-3.24 ± 0.54	–
UUUAAGCAAUAUUACGUACC	–	-0.234 ± 1.4
ACCUAGCAAUAUUACGUCCC	–	-1.25 ± 0.63
CGUGAGCAAUAUUACGCGCG	-2.44 ± 0.81	-0.234 ± 1
CCAUAGCAAUAUUACGAAUU	-3.3 ± 0.23	-2.51 ± 0.39
GUAGAGCAAUAUUACGCUCU	–	-0.123 ± 0.57
GAGGAGCAAUAUUACGUCCU	–	-1.18 ± 0.72
AGAGAGCAAUAUUACGCCGU	-4.4 ± 1	-2.24 ± 0.78
GGGGAGCAAUAUUACGCUAA	-2.25 ± 0.65	–
UCUGAGCAAUAUUACGAGCA	-2.71 ± 0.54	–

Whole records as entered above:
GCGGAGCAAUAUUACGGUUC as listed: self-splicing fitness (ln) (30 °C) = -2.31 ± 0.68
UUCGAGCAAUAUUACGUAGC as listed: self-splicing fitness (ln) (30 °C) = -2.62 ± 1.1; self-splicing fitness (ln) (37 °C) = -2.99 ± 0.74
GACUAGCAAUAUUACGAGUC as listed: self-splicing fitness (ln) (30 °C) = -4.4 ± 0.51
UAAGAGCAAUAUUACGCUGA as listed: self-splicing fitness (ln) (30 °C) = -3.94 ± 0.6

Following part

Sequence	self-splicing fitness (ln) (30 °C)	self-splicing fitness (ln) (37 °C)
CCUCAGCAAUAUUACGGAUC	-3.69 ± 0.73	–
AUGGAGCAAUAUUACGGUAA	-3.34 ± 0.75	–
GUUAAGCAAUAUUACGCAAU	-3.09 ± 0.44	-2.29 ± 1.1
UAAGAGCAAUAUUACGCUCU	-2.21 ± 1.1	-2.5 ± 0.55
CUGAAGCAAUAUUACGCAAC	-4.79 ± 0.59	–
AGGAAGCAAUAUUACGGGGG	-4.49 ± 0.59	-1.89 ± 0.36
CAGUAGCAAUAUUACGUUCC	-3.75 ± 1	–
GGGUAGCAAUAUUACGGGCC	–	-1.75 ± 0.81
UUCCAGCAAUAUUACGUUCC	-4.67 ± 0.72	–
AUUGAGCAAUAUUACGUCUC	-3.38 ± 0.53	–
UUGGAGCAAUAUUACGGAAC	–	-2.38 ± 0.55
GAACAGCAAUAUUACGGUCA	-0.702 ± 0.062	-1.05 ± 0.066
GUGUAGCAAUAUUACGGCAG	-2.39 ± 0.57	–
GACGAGCAAUAUUACGAGGU	-3.81 ± 0.28	-2.38 ± 0.27
GGAGAGCAAUAUUACGAGUC	–	-2.14 ± 0.55
GUCGAGCAAUAUUACGUCAC	-2.35 ± 0.69	-3.98 ± 0.82
UGCUAGCAAUAUUACGGUAC	-1.4 ± 1.2	–
AUUGAGCAAUAUUACGACCG	-1.81 ± 0.76	-2.52 ± 0.77
AGGGAGCAAUAUUACGCAUU	–	-2.59 ± 0.54
GGAGAGCAAUAUUACGGGGU	-4.14 ± 0.73	-4.08 ± 1
AAUAAGCAAUAUUACGUAGC	-5.06 ± 0.51	–
ACUUAGCAAUAUUACGCCCC	–	0.218 ± 0.56
CCAUAGCAAUAUUACGCCGC	–	-2.48 ± 0.55
UCGCAGCAAUAUUACGCUCC	–	-1.34 ± 0.52
